The supplement of paper PMC12889115
Some of the results follow. These are raw signals, not scaled to a control.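 Primary screen: polymyxin B was added at a level permeabilizing Salmonella outer membranes while sparing inner membranes. DMSO wells, both with and without polymyxin B, established maximum growth. Plate-to-plate variation meant each plate was ranked on its own, and the lowest-OD600 compounds were selected as hits.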

Tested on: Salmonella enterica serovar Typhimurium SL1344
Assay: bacterial growth OD600 after 18 h with compound and polymyxin B; higher = more bacterial growth (less inhibition)
Settings: 50 µM, Mueller-Hinton broth

Row | Structure (SMILES) | bacterial growth OD600 (polymyxin B 0.75 µg/mL) | bacterial growth OD600 (polymyxin B 1 µg/mL)
1 | Cc1c(C(C)NCc2cc(F)cc(F)c2)cnn1-c1cccc(F)c1 (configuration not stated) | 0.762 | –
2 | O=C(CCc1nc(-c2ccccc2)no1)NC1CCCN(Cc2ccccc2F)C1 (configuration not stated) | – | 0.925
3 | C=CCCC(=O)NC1CC(=O)N(Cc2ccc(F)cc2)C1 (configuration not stated) | – | 0.887
4 | OC(Cc1ccccc1)c1ccc2c(c1)CN(Cc1ccccc1OC(F)F)CCO2 (configuration not stated) | 0.035 | –
5 | Cc1ccc(C)c(OCc2cc(C(=O)N(C)Cc3n[nH]c4c3CCCC4)no2)c1 | 0.502 | –
6 | CN(Cc1ccccc1)c1ncc2c(n1)CC(C)(C)CC2NS(C)(=O)=O (configuration not stated) | 0.472 | –
7 | Cc1nc(N2CCCCCCC2)ncc1C(C)NC(=O)C1(C(N)=O)CC1 (configuration not stated) | – | 1.02
8 | COc1cc(CN2CCCC2)ccc1OCC(O)CN1CCCCCCC1 (configuration not stated) | 0.811 | –
9 | COC(=O)c1ccc(-c2noc(CN3CCN(c4ccccc4F)CC3)n2)cc1 | 0.757 | –
10 | Cc1cc(C(=O)N2CCCC(Nc3ccc4c(c3)OCCO4)C2)c(C)o1 (configuration not stated) | – | 0.914
11 | COc1cc(C(=O)NCCOC(C)C)ccc1OC1CCN(C2CCCC2)CC1 | 0.751 | –
12 | CCOC(=O)C1(Cc2cccc(Cl)c2)CCCN(C(=O)c2cnn3cccnc23)C1 (configuration not stated) | 0.74 | –
13 | Cc1c(CC(=O)NC(C)CO)c2c(n1Cc1ccccc1F)CCCC2=O (configuration not stated) | 0.865 | –
14 | COc1ccc(CN(C)CC2CCCN(CCc3ccc(F)cc3)C2)cc1O (configuration not stated) | – | 0.814
15 | CCC(CC)NC(=O)C1CCC(=O)N(Cc2ccccc2F)C1 (configuration not stated) | – | 0.875
16 | CC(NC(=O)c1cc(COc2ccc3c(c2)OCO3)[nH]n1)c1cnn(C)c1 (configuration not stated) | – | 1.04

Entries 2 to 3, reprinted for reference:
Row | Structure (SMILES) | bacterial growth OD600 (polymyxin B 0.75 µg/mL) | bacterial growth OD600 (polymyxin B 1 µg/mL)
2 | O=C(CCc1nc(-c2ccccc2)no1)NC1CCCN(Cc2ccccc2F)C1 (configuration not stated) | – | 0.925
3 | C=CCCC(=O)NC1CC(=O)N(Cc2ccc(F)cc2)C1 (configuration not stated) | – | 0.887

(more compounds)

Row | Structure (SMILES) | bacterial growth OD600 (polymyxin B 0.75 µg/mL) | bacterial growth OD600 (polymyxin B 1 µg/mL)
17 | COc1ccc(-c2noc(CN3CCCCC3CO)n2)c(OC)c1OC (configuration not stated) | – | 0.938
18 | COc1ccc(OC)c(CN2CCCC(C(=O)c3ccc(OC)c(F)c3)C2)c1 (configuration not stated) | 0.731 | –
19 | COc1ccc(NC(=O)CCC2CCCN(C(=O)c3ccccc3C(C)=O)C2)cc1Cl (configuration not stated) | – | 1.04
20 | Cc1ncc2c(c1CNC(=O)c1ccc3c(c1)OCO3)CCN(C(=O)COc1ccccc1Cl)C2 | 1.06 | –
21 | CSCCCN1CCC(N2CCC(C(=O)NCc3cccnc3)CC2)CC1 | – | 0.96
22 | CCS(=O)(=O)c1ncc(CN2CCC(C)CC2)n1CCOC | – | 0.992
23 | CCc1ccc(CN(C)C(=O)c2coc(COc3ccccc3)n2)nc1 | 0.78 | –
24 | COC1CCCN(c2ccc(C(=O)NCCCc3c(C)noc3C)cn2)C1 (configuration not stated) | – | 1.04
25 | CN(C)c1ncc2c(n1)CCCC2NC(=O)CCN1CCCC1=O (configuration not stated) | – | 0.919
26 | CCC(CC)C(=O)N1CCc2c(cnc(C)c2CNS(=O)(=O)c2cccs2)C1 | 0.971 | –
27 | CSc1ccccc1C(=O)NC1CCCN(CCc2ccccc2)C1 (configuration not stated) | – | 0.852
28 | CCOC(=O)C1(Cc2ccccc2C(F)(F)F)CCN(Cc2nccn2CC)CC1 | – | 0.912
29 | CC1(C(=O)NC2CC(=O)N(Cc3ccccc3C(F)(F)F)C2)CC1 (configuration not stated) | – | 0.94
30 | O=C1CCC(CCC(=O)N2CCCC2c2nc3ccccc3s2)(Cc2ccc3c(c2)OCO3)N1 (configuration not stated) | 0.781 | –
31 | Cc1nc2ccc(C(=O)N3CCCC(CO)(CCOc4ccccc4)C3)cc2nc1C (configuration not stated) | 0.768 | –
32 | COCCC(=O)Nc1cc(C(=O)N(C)Cc2cn(C)nc2C)cc2nc(-c3ccccc3)n(C)c12 | 0.841 | –
